Results published in doi:10.1101/2021.08.31.458428.

Chains of the proteins cited; added tags and fusions are not shown. Lines headed by an entry give the natural chain unless they say otherwise; changes in a name come on top.
UniProt P34152: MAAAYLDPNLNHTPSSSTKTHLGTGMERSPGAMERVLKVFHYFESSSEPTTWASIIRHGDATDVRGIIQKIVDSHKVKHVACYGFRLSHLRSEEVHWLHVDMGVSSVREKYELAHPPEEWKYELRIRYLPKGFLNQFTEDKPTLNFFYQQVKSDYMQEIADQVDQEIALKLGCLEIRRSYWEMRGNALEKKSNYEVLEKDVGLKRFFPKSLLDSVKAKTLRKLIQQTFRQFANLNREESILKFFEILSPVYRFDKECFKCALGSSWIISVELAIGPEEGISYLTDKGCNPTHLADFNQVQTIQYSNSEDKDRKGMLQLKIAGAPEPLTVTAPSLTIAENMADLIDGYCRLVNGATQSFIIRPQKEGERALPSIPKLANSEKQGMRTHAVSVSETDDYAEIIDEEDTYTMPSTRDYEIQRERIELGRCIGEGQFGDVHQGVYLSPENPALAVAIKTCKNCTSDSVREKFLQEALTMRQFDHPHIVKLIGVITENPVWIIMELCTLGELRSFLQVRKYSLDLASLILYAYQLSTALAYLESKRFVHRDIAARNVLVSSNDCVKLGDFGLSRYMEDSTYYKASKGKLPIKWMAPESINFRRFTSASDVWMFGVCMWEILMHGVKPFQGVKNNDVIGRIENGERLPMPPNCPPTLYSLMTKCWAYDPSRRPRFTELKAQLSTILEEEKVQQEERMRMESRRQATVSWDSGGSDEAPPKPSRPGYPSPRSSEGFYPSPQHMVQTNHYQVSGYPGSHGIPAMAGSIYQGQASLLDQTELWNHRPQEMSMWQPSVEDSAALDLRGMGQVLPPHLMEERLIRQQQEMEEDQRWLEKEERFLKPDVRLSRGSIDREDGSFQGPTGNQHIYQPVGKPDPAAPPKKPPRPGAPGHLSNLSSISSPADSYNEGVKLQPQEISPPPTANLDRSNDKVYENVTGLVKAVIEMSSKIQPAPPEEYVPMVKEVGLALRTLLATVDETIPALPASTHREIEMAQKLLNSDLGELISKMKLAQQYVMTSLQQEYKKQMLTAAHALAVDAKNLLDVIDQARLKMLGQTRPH
UniProt Q62219: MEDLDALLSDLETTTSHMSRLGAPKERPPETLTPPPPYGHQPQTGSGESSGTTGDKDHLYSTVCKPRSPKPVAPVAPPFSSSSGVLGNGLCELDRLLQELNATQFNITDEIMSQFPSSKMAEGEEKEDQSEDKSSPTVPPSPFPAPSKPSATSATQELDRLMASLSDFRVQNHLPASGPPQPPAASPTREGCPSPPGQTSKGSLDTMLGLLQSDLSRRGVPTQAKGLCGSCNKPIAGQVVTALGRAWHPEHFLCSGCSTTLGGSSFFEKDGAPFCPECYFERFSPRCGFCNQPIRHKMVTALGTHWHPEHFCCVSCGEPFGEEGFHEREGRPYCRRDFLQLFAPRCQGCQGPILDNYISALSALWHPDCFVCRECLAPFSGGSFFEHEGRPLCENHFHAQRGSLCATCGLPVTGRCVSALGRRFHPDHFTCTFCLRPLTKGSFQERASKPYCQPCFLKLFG

Target: FAK fused to the promiscuous mutated biotin ligase BirA* (FAK-BirA*) (UniProt P34152)
Experiment: proximity labelling

Question: For Hic-5 (from UniProt Q62219 1-461), which binding is on record?
Answer: binds

Results are given in words; binding and its absence hold for the method and conditions named. In cells and extracts the contact can be indirect. Here binding means that the protein was enriched with, or labelled near, the bait; the list need not be complete.
